Consider 68 sequences from PubChem BioAssay AID1508600 (Functional Genomics Laboratory (NCATS/FGL), 2020).

In all, about 53,000 sequences went through this assay and about 3,700 (7%) were called active.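 Rule for the calls: active = gene knockdowns whose robust z-score for IL-1 alpha signal is at least 2 or at most -2, so actives lie on both sides; inactive = the rest.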 The list shows a part of the results.

The nature of the assay: Components of the Cytosolic LPS Sensing Pathway: Gene Identification via Genome-wide siRNA Screen.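 Note: robust z of the log signal after scaling to non-targeting control siRNA wells of the plate.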 As to conditions: RAW264.7 macrophages, IL-1a HTRF, actives lie on both sides, screened at 100 nM (by protocol), cells primed 5 h with Pam3CSK4 first. The method in brief: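 Cells (RAW264.7, 1×10^4 per well) were transfected with siRNA at 100 nM and cultured 48h at 37 degrees C. Pam3CSK4 was added for 5 hours; LipidA transfection followed for 24 hour. IL-1a was then measured by HTRF.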
Consider GGCACAAAAUGACUCCUAUTT against Tspear, for which the z-score was inactive: -0.936. Turning to GGACCUGGUCACCAUCUUGTT against Tram2, the z-score is inactive: -0.3. On to GGAUCAUAGUUACAAGGCUTT against L3mbtl2, for which the z-score is inactive: 0.458. The same measure for GGUCACCAAAGUGAAAACATT against Ndufa8: inactive: -0.187; for GGUCUAUCCCAUCAUGCCUTT against Clcnka: inactive: 0.583.

On to GCAGGCGAUAUAGAAGCAATT against Frg1, for which the z-score was inactive: 0.475. Regarding CCAUUCAUUUAACCUUUCATT against Acot11, the z-score was inactive: -0.814. Consider GGAGUUCAGCAACCUGUUGTT against Tmem97, for which the z-score is active: -2.08. As to GGAGCUACGAGGAAUUGGUTT against Brwd1, the z-score is inactive: 0.062. GCUGCAUCCGUAGAUGUUGTT against Aldh1l1: the z-score was inactive: 0.208.

For GGAGAACUGCUUCCACAUGTT against Clec4a3, the z-score was inactive: 0.418.

Turning to GGAACACCAUCAUCAGUCATT against Ephb2, the z-score is inactive: -0.448. As for GGCACAAUUUCUUUGAAUCTT against Ophn1, the z-score was inactive: 0.885.

AGCCUUCUUACCACAAGUUTT against Nlrp4e: the z-score is inactive: 0.103. On to GGAGCUACGAAGAGGAUCUTT against Wdr45b, for which the z-score was active: -2.69. As for “GCAAAGAUCUUUGAGUAAGTT against 4632415L05Rik”, the z-score was inactive: -1.29. The result for GGCCAUGAUUGAGAAGCUATT against Smtn reads inactive: -1.33. In the case of “GCGUGUAUCUAGUGAAAUUTT against 4930524B15Rik”, the z-score is inactive: 1.28. The result for GGUGAAGCUGAAGAAGUACTT against Chst12 reads inactive: 0.975; that for GGAGAAAAAGGGAAAGAAUTT against Dlx4, inactive: 0.0644; that for CUACUCAGGACAUGUCUCATT against Draxin, inactive: 0.0683. With GCUGUCAGACUAAAGAUAUTT against Mmd, the z-score was inactive: -0.733. Take GCCAGAAAGAUUCCUUCCUTT against Olfr1419: the z-score was inactive: 0.541. For the sequence GGGUACACUCCAUGCUUAGTT against Tcap, the z-score was inactive: -1.1.

For the sequence GUCUUGACAUUAGUACUCATT against Olfr1408, the z-score is inactive: -0.32. As to GGUGGACAUUCCUAAGAUUTT against Ago1, the z-score is inactive: -0.97.

As for GGUCAAAGUUUGAUGUUAGTT against Tll2, the z-score is inactive: -1.73. The same measure for GGUCAAAUUCUUUGACCUATT against Tesk2: inactive: 0.512.

In the case of GGUGAUUGUCCGGUUCGGUTT against Tmem51, the z-score was inactive: -0.757. As to GCAGAAAAAUCCUCUUACATT against Sp6, the z-score was inactive: 1.2.

Take CCAGCAAUAAUGAAAAGACTT against Samd8: the z-score was inactive: 1.03.

Regarding CGAGAUUGUGCUGAUAGAGTT against Nptx2, the z-score was inactive: 0.533. In the case of GGCAAGAGCAUCCUUACAGTT against Fah, the z-score is inactive: -0.562. As for CCAAGAUCGAUCAUUUUGGTT against Gm527, the z-score is inactive: -0.794. Consider GCCUAUAAGGAAUAACAAGTT against Cerkl, for which the z-score was inactive: 1.27. As for GGCACAGGUUUUCCAAGGUTT against Rp1l1, the z-score is inactive: -0.635. Regarding GGUUCAAAUGGUCAAAUUCTT against Pcdha10, the z-score is inactive: 0.447. For GGAAGAUGGGCAAGAUGAUTT against Sash3, the z-score was inactive: -0.183.

Turning to GGUCAAAAUGACCAAGGAUTT against Acot1, the z-score was inactive: -1.41. For the sequence GCAGAUACGACGAAGAUCUTT against Pithd1, the z-score was inactive: -0.958. Turning to GGAAAGUUCCCAUGUUCUCTT against Mgat4f, the z-score was inactive: 1.33.

Take CGCCACACACCAUCACAUUTT against Scap: the z-score is inactive: -0.0743.

Regarding GGUUGACUGAAGUAAUAGCTT against Nemf, the z-score was inactive: -1.56. As to GCUUCCUGAUGGACGGACUTT against Actl9, the z-score is inactive: 0.366.

As for GGAAGGAUGGAGCAAAGCCTT against Tsfm, the z-score was inactive: -0.214. Regarding GGGUCACGUGCUGUCUCAUTT against Slc22a20, the z-score is inactive: -1.55. The same measure for GGGUCACACUUCAUGGCUUTT against Pofut1: active: -2.07; for GGGUAUGCAAAAAUGGUUGTT against Csnk2a2: inactive: 1.13; for UAUAGAACAUGCCAAAUUGTT against Adam26a: inactive: 1.49. GGUGUCAGGAUUUUAUAACTT against Etfbkmt: the z-score is inactive: -0.182.

With CCUCAUUUCAUUGUCUAGUTT against Kank2, the z-score is inactive: -0.388.

For GGAGCAUGCUGGUCUUAGUTT against Bmp10, the z-score was inactive: -0.197.

Regarding GGUUCAACACGAUGUUCGATT against Nr1i2, the z-score is inactive: 0.162. With GAGAAAGAUAAUUACCUGGTT against Tnfrsf22, the z-score is inactive: 0.552.

In the case of CCUUCAACACCAGUUUGGGTT against Olfr1393, the z-score is inactive: 0.45.

As to GGUAAAGAUGAAAAUGUGUTT against Fut9, the z-score is inactive: -0.311.

Take GGAGGAACACAAGAUUUUCTT against Ppp2r5c: the z-score is inactive: -0.322. Turning to GGUAACAUGGUUUUAACAGTT against Tmem200a, the z-score is inactive: -0.0515. The result for GGAUUCUGUAGGUCUUCCUTT against Defb19 reads inactive: 0.9; that for GGACCUUAAUUGCAUCAUUTT against Mapk3, inactive: 1.88.

Consider GGGAAGGAUGUGCUUAUGATT against Rab38, for which the z-score is inactive: -1.09. Turning to GGUACAUUUCAACCACAUUTT against Lnx1, the z-score is inactive: 1.91. The result for GCUACGACUCGGAUGAUACTT against Doc2a reads inactive: -0.682; that for GGAACAGAAUACAAAAAAGTT against Syap1, inactive: -0.266; that for CCCUCUUAGUAACUGGCUCTT against Cdhr4, inactive: -0.0846. As for GCUGAAAUAGUUGCUAAAUTT against Usp6nl, the z-score is inactive: 0.443. For the sequence GGUUGAAAUAGAGAUCAUATT against Tmprss11g, the z-score was inactive: -0.43. The same measure for GGACAAGCAAUAACUCUACTT against Mapkapk2: inactive: 1.44.
